# Percent effect of library compounds

By UniProt entry, the sequences of proteins in these tests, tags left out.
UniProt P9WPC5, whole entry: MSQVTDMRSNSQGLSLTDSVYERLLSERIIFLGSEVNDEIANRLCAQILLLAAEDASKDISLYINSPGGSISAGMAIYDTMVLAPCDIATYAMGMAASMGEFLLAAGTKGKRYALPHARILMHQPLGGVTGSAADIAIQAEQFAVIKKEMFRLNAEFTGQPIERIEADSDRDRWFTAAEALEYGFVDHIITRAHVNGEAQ
UniProt P9WPC3, whole entry partner: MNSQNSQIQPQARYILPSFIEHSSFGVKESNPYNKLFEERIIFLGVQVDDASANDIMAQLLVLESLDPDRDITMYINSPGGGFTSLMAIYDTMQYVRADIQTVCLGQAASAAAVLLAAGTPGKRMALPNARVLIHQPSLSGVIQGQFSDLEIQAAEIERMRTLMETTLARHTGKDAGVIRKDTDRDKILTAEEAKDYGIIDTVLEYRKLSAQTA
UniProt I6X8D2, whole entry: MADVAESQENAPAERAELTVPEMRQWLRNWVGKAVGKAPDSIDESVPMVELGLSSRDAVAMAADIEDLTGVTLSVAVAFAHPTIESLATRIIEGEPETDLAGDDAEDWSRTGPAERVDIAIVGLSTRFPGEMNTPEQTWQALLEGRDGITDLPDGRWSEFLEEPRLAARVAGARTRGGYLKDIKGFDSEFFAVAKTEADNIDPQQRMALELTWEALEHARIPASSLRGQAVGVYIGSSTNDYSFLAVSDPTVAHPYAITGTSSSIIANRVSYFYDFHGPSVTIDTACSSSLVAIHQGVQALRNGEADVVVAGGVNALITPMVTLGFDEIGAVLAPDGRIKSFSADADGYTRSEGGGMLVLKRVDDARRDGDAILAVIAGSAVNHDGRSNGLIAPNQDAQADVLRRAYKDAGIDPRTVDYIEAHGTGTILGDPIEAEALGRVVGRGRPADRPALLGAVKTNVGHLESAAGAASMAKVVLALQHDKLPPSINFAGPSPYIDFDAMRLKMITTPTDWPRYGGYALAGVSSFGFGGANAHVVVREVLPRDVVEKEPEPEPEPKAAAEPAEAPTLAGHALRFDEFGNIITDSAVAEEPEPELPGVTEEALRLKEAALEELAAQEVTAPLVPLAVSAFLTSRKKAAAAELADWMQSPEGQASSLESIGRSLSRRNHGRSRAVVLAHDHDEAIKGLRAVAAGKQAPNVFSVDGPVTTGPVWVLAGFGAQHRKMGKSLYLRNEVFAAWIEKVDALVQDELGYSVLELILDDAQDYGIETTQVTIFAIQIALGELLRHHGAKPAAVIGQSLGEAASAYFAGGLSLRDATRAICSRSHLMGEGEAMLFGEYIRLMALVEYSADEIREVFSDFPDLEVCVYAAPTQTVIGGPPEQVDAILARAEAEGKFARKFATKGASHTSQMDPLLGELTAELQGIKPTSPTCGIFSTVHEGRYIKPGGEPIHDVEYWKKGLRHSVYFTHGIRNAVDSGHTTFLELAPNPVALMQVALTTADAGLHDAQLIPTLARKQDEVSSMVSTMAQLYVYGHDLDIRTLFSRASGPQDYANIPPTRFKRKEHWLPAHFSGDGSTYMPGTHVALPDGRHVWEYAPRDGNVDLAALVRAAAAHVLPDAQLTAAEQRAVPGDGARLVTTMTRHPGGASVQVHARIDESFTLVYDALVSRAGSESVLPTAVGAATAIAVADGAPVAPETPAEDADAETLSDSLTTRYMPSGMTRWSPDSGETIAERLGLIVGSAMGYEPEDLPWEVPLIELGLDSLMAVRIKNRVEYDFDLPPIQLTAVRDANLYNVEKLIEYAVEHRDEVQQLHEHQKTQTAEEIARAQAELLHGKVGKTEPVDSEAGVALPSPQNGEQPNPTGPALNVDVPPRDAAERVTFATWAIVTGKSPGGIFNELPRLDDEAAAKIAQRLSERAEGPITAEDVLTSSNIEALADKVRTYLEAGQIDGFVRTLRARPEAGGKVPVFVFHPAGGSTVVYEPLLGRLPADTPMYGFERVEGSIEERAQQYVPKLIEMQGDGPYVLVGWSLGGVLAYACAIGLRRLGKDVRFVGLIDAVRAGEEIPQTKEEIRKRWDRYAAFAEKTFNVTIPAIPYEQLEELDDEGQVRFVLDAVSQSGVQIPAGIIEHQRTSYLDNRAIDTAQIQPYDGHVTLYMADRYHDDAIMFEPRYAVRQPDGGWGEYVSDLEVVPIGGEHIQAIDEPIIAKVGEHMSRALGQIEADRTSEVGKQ
UniProt P9WFT3, whole entry: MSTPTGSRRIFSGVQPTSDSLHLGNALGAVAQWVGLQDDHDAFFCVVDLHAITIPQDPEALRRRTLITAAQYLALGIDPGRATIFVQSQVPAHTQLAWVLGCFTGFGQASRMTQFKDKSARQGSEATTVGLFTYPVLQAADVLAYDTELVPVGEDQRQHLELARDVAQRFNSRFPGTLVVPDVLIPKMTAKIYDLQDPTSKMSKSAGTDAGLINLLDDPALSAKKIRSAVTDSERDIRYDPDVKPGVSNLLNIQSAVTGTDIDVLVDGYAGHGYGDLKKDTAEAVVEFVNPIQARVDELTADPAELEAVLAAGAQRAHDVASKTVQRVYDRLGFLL

The values are deposited in ChEMBL (CHEMBL3988442, “University of Dundee, Small-Polar-MMV Screening Library” (2021)).

The filed quantity is “Percent Effect” (%).
How 0% and 100% were set is not recorded. Most values in the screen are low, and negative values occur.
The compounds are a random part of those screened.

ClpP1P2: 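ClpP1P2, Mycobacterium tuberculosis (UniProt P9WPC5 and UniProt P9WPC3). Protease assay of ClpP1P2, read by the AMC dye that it sets free. Compounds at 50 µM. Direction is inferred from only a few compounds that gave an IC50; most scored high, so higher reads as stronger inhibition. Most other retested compounds had strongly negative values. Size under these conditions: about 69,000 compounds, about 10 of them at 50% or above in at least one test.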
Pks13 thioesterase: 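Polyketide synthase Pks13, Mycobacterium tuberculosis (UniProt I6X8D2). Enzyme assay of the thioesterase domain of polyketide synthase 13; the read-out is not stated. Tested at 30 µM. The record gives no direction; the compounds picked for IC50 retests had high values, so higher reads as stronger inhibition. Of about 67,000 compounds tested this way, about 300 (0.46%) reached 50% or more in at least one test.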
MtTrpRS: 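Tryptophan-tRNA ligase, Mycobacterium tuberculosis (UniProt P9WFT3). Enzyme assay of tryptophanyl-tRNA synthetase; the read-out is not stated. Compounds at 10 µM. Direction is not recorded; retested compounds ran higher, which suggests that high means inhibition. About 65,000 compounds were tested under these conditions; 0.098% (about 64) showed 50% or more at least once.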

compound: Cc1cc(C(=O)N[C@H]2CC[C@@]3(CCC(=O)N3)CC2)no1
ClpP1P2: -11.35%
Pks13 thioesterase: -33.17%
MtTrpRS: 13.82%

compound: O=C(c1ccncc1F)N1CCc2ncnc(C3CC3)c2CC1
ClpP1P2: -1.433%
Pks13 thioesterase: -13.05%
MtTrpRS: -6.173%

compound: CC(C)Cc1ncc2c(n1)CN(c1cc(NCCO)nc(N)n1)C2
ClpP1P2: -1.3%
Pks13 thioesterase: 4.92%
MtTrpRS: 1.088%

compound: Cc1nc(CSCCC(=O)NCc2cccnc2N(C)C)cs1
ClpP1P2: 8.958%
Pks13 thioesterase: -32.2%
MtTrpRS: -0.3934%

compound: CC(C)c1cnc(CN(C)C2CCN(CCc3cnn(C)c3)C2)o1 (stereo unspecified)
ClpP1P2: -22.99%
Pks13 thioesterase: -3.214%
MtTrpRS: -5.781%

compound: Cc1ccc(CN(c2cc(C)nc3nc(C(F)(F)F)nn23)C2CC2)cc1
ClpP1P2: -1.148%
Pks13 thioesterase: -72.53%
MtTrpRS: -1.475%

compound: NC(=O)NC(=O)C(c1ccccc1)N1CCN(Cc2ccc(Cl)s2)CC1 (stereo unspecified)
ClpP1P2: -6.143%
Pks13 thioesterase: -5.006%
MtTrpRS: -0.1434%

compound: Cc1cc(C)n(CCN2CCOC(CNc3cccnn3)C2)n1 (stereo unspecified)
ClpP1P2: -17.13%
Pks13 thioesterase: 4.417%
MtTrpRS: 4.641%

compound: c1ccc(OCCSC2=NCCN2)cc1
ClpP1P2: -12.77%
Pks13 thioesterase: -0.61%
MtTrpRS: 1.308%

compound: Cn1cnc2c1CCN(Cc1nc(-c3ccsc3)no1)C2
ClpP1P2: 1.771%
Pks13 thioesterase: -23.2%
MtTrpRS: -1.458%

compound: CN(C)c1ncnc2c1CCN(CC1CCOCC1)CC2
ClpP1P2: -4.478%
Pks13 thioesterase: -6.563%
MtTrpRS: -8.415%

compound: O=C1OCCN1Cc1ncnn1Cc1c(F)cccc1Cl
ClpP1P2: -12.7%
Pks13 thioesterase: -14.1%
MtTrpRS: 4.187%

compound: O=C(CCNc1ncccn1)NCCc1ccn(-c2ccccc2)n1
ClpP1P2: 0.8665%
Pks13 thioesterase: -9.561%
MtTrpRS: -0.6823%

compound: CC(C)CCNC(=O)NC(C)c1nncn1C (stereo unspecified)
ClpP1P2: -5.917%
Pks13 thioesterase: -24.69%
MtTrpRS: 9.032%

compound: Cc1cnn(C2CCCN(C(=O)Cc3ccc(-n4cccn4)cc3)C2)c1 (stereo unspecified)
ClpP1P2: -1.828%
Pks13 thioesterase: 4.597%
MtTrpRS: 5.49%

compound: Cc1cc(C)n(CCCN(C)C(=O)CN2CC3(CCNCC3)OC2=O)n1
ClpP1P2: 2.851%
Pks13 thioesterase: -40.19%
MtTrpRS: -0.3096%

compound: NC(=O)c1ccc(N2CCCCC2)c(NC(=O)c2ccc(F)cc2Cl)c1
ClpP1P2: 11.92%
Pks13 thioesterase: 5.559%
MtTrpRS: -1.002%

compound: Cn1cc(C2CC3(CCN(C(=O)c4cccs4)CC3)NC2=O)cn1 (stereo unspecified)
ClpP1P2: -0.8512%
Pks13 thioesterase: -24.28%
MtTrpRS: -7.41%

compound: O=C(N[C@@H]1CN(c2ncccn2)C[C@@H]2CCCO[C@@H]21)c1cccnc1
ClpP1P2: 2.651%
Pks13 thioesterase: 21.19%
MtTrpRS: 7.811%

compound: COc1coc(CN2CCCC(CCc3ccc(F)c(F)c3)C2)cc1=O (stereo unspecified)
ClpP1P2: -3.206%
Pks13 thioesterase: -28.13%
MtTrpRS: -1.554%

compound: CC(C)N(C)S(=O)(=O)N(Cc1cccs1)Cc1cccs1
ClpP1P2: -4.878%
Pks13 thioesterase: -15.23%
MtTrpRS: 4.636%

compound: CCC(C)NC(=O)N1CCCn2cnc(CO)c2C1 (stereo unspecified)
ClpP1P2: -9.746%
Pks13 thioesterase: -10.37%
MtTrpRS: 2.22%

compound: Cc1ccccc1CCC1CCCN(Cc2nnc(-c3ccco3)o2)C1 (stereo unspecified)
ClpP1P2: -8.136%
Pks13 thioesterase: -6.367%
MtTrpRS: 3.828%

compound: c1cc(C2CCN(C3CCCCC3)C2)n[nH]1 (stereo unspecified)
ClpP1P2: 4.922%
Pks13 thioesterase: 4.403%
MtTrpRS: -1.302%

compound: Cc1cc(N2CCN(Cc3ccc(-c4cc[nH]n4)o3)CC2)cc(C)n1
ClpP1P2: -22.69%
Pks13 thioesterase: -25.82%
MtTrpRS: 7.993%

compound: CC(=O)N1CCC2(CC1)CN(C)C(=O)C[C@H]2C(F)(F)F
ClpP1P2: 8%
Pks13 thioesterase: -31.33%
MtTrpRS: 4.554%

compound: CCN1CC2(CCN(CC3CCCO3)CC2)OC1=O (stereo unspecified)
ClpP1P2: -2.676%
Pks13 thioesterase: 1.703%
MtTrpRS: -4.852%

compound: CN(Cc1nncn1C)c1nccc(C2CCCC2)n1
ClpP1P2: 9.644%
Pks13 thioesterase: -0.2326%
MtTrpRS: 2.651%

compound: Cc1ncsc1CN1C[C@@H]2COC[C@]2(C(=O)NCc2ccccn2)C1
ClpP1P2: -10.46%
Pks13 thioesterase: -2.055%
MtTrpRS: -1.44%

compound: CCOc1ccc(C(=O)N2CCCC(c3nccn3C)C2)cc1OCC (stereo unspecified)
ClpP1P2: 19.6%
Pks13 thioesterase: -13.03%
MtTrpRS: 4.387%

compound: Fc1ccc(CN2CCC(c3noc(-c4cnccn4)n3)CC2)cc1F
ClpP1P2: -4.829%
Pks13 thioesterase: 3.07%
MtTrpRS: -5.855%

compound: CC(C)CCN(c1cn[nH]c1)S(=O)(=O)c1cccc(C#N)c1
ClpP1P2: -6.537%
Pks13 thioesterase: -6.575%
MtTrpRS: 12.33%

Some entries from above, unchanged:

With Fc1ccc(CN2CCC(c3noc(-c4cnccn4)n3)CC2)cc1F the screen gave ClpP1P2: -4.829%; Pks13 thioesterase: 3.07%; MtTrpRS: -5.855%.
With Cc1cc(N2CCN(Cc3ccc(-c4cc[nH]n4)o3)CC2)cc(C)n1 the screen gave ClpP1P2: -22.69%; Pks13 thioesterase: -25.82%; MtTrpRS: 7.993%.
With CCN1CC2(CCN(CC3CCCO3)CC2)OC1=O (stereo unspecified) the screen gave ClpP1P2: -2.676%; Pks13 thioesterase: 1.703%; MtTrpRS: -4.852%.